# Results from one PubChem assay

Data taken from PubChem BioAssay AID1508623, deposited by NCATS (2021).

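Firefly luciferase light from HEK293 cells carrying a huntingtin (HTT) promoter reporter, read after 24 hours of compound exposure, giving single-concentration activity change.
Percent change in reporter signal versus vehicle (0%) down to no light (-100%); more negative values mean stronger inhibition of promoter activity.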

Values are in %.
Common to all entries: at 57.5 µM (top of the series).
Only part of the assay is listed here, not a random draw.

- Cc1oc2ccc(O)c(CN3CCOCC3)c2c1C(=O)Nc1cccc(Cl)c1C | activity change -10.88%
- CC(=O)c1ccc(S(=O)(=O)Nc2cccc(-c3ccc(N4CCCC4)nn3)c2)cc1 | activity change -12.83%
- O=C(Nc1ccccc1C(F)(F)F)c1noc2c1CCCC2 | activity change 66.92%
- COC(=O)c1ccc(N2C(=O)Cc3cc(OC)c(OC)cc3C2c2ccc(F)cc2)cc1 (centres undefined) | activity change -24.55%
- COc1ccc(C2C(=O)N(C3CCC(C)CC3)CC(=O)N2Cc2ccc(C)cc2)cc1OC (centres undefined) | activity change -23.44%
- CS(=O)(=O)N1CCC(n2c(C(F)(F)F)nc3cccnc32)CC1 | activity change -14.68%
- CC(C)(C)c1ccc(OCc2nnc(-c3ccccc3)o2)cc1 | activity change 3.702%
- Cc1c(NC(=O)Nc2ccccc2C(F)(F)F)sc2nc3n(c(=O)c12)CCC(C)CC3 (centres undefined) | activity change -6.221%
- COc1ccc(C2C(=O)N(C3CCC(C)CC3)CC(=O)N2C2CCCC2)cc1OC (centres undefined) | activity change -19.54%
- O=C(Nc1cccc(-c2nc3ncccc3o2)c1)c1ccc(-c2cccc(Cl)c2Cl)o1 | activity change -43.38%
- C=C(C)Cn1c(SCC(=O)Nc2cccc(Cl)c2)nc2sc3c(c2c1=O)CCCC3 | activity change -19.41%
- CCc1ccc(S(=O)(=O)Nc2cc3c(C(=O)OCc4ccccc4)c(C)oc3c3ccccc23)cc1 | activity change -16.64%
- COc1ccc(CNC(=O)c2cc(-c3ccc(OC)cc3)on2)cc1 | activity change -8.679%
- O=C1C(c2ccc(F)cc2)N(CCc2ccccc2)C(=O)CN1C1CCCCCC1 (centres undefined) | activity change 11.62%
- O=C(Nc1cnn(Cc2ccc(Cl)cc2Cl)c1)c1noc2c1CCc1ccccc1-2 | activity change -25.17%
- COc1ccc(C2Nc3ccccc3-n3c(-c4ccccc4)c4c(=O)n(C)c(=O)n(C)c4c32)cc1 (centres undefined) | activity change -18.44%
- COc1ccc(C)cc1S(=O)(=O)Nc1cccc(-c2ccc(N3CCCC3)nn2)c1 | activity change -9.524%
- COc1ccc2c(C)c(CCC(=O)NCCc3ccccc3)c(=O)oc2c1 | activity change -37.2%
- Cc1cc(C)cc(OCCSc2nc(-c3ccc(C(C)(C)C)cc3)nc3cc(=O)[nH]n23)c1 | activity change -23.45%
- COc1ccc(OC)c(CNC(=O)C2CCCCN2S(=O)(=O)c2ccc(F)cc2)c1 (centres undefined) | activity change -33.31%
- CCc1cc(=O)oc2c3c(c(Cl)cc12)OCN(Cc1cccc(OC)c1)C3 | activity change -10.55%
- Cc1ccc(CNC(=O)C2CCCCN2S(=O)(=O)c2ccc(F)cc2)cc1 (centres undefined) | activity change -48.91%
- Cc1ccc(C)c(OCCOCCn2c(-c3ccc(Br)cc3)nc3ccccc3c2=O)c1C | activity change -3.401%
- COc1ccccc1NC(=O)C1=C(C)Nc2nnnn2C1c1cc(Br)c(O)c(OC)c1 (centres undefined) | activity change -12.35%
- CCOC(=O)C1CCN(CCC(=O)Nc2ccccc2Cl)CC1 | activity change -7.748%
- O=C(Nc1ccc(F)cc1)c1ccc2c(c1)NC(=O)c1ccccc1S2 | activity change -93.76%
- CCOC(=O)c1c(-c2ccccc2)oc2ccc(NS(=O)(=O)c3ccc(C)cc3C)cc12 | activity change -20.66%
- Cc1oc2ccc(O)c(CN3CCCC3)c2c1C(=O)Nc1ccc(C(C)C)cc1 | activity change -23.07%
- CCC1CCCCN1Cc1c(O)ccc2c(=O)c(Oc3ccccc3Cl)c(C(F)(F)F)oc12 (centres undefined) | activity change -38.23%
- COc1ccc2c(c1)cc1c(=O)n(CC(=O)NCCc3ccccc3)nc(C)n12 | activity change -6%
- CCc1cccc(CC)c1NC(=O)c1c(C)oc2ccc(O)c(CN3CCCC3)c12 | activity change -21.38%
- COc1ccc(Nc2nc(N)nc(CSc3nc4cc(OC)ccc4s3)n2)cc1 | activity change -46.19%
- CCOC(=O)c1cccc(NC(=O)c2cnc3sc(N4CCOCC4)nn3c2=O)c1 | activity change -30.46%
- O=C(NCCCc1nc2ccccc2n1Cc1ccc(Cl)cc1Cl)c1ccco1 | activity change -42.01%
- CCOc1ccc2nc(Cl)c(C3CC(c4ccccc4)=NN3C(=O)CCC(=O)O)cc2c1 (centres undefined) | activity change 2.067%
- CCOc1ccc(Nc2nnc(-n3nc(C)cc3C)c3ccccc23)cc1 | activity change -7.072%
- COc1ccc(S(=O)(=O)N2CCC(n3c(C)nc4cccnc43)CC2)cc1Cl | activity change -38.31%
- COC(=O)c1ccc(NC(=O)CC2C(=O)N(c3cccc(OC)c3)C(=O)N2Cc2ccco2)cc1 (centres undefined) | activity change -14.88%
- CCc1nn2c(=O)c(S(=O)(=O)Nc3ccc(C)cc3C)c(C)nc2s1 | activity change -42.99%
- CCS(=O)(=O)N1N=C(c2ccc(C)cc2)CC1c1cc2ccc(OC)cc2nc1Cl (centres undefined) | activity change -36.76%
- COc1ccc(C2=C(Nc3ccc(C)c(C)c3)c3ccccc3C2=O)cc1 | activity change -31.25%
- O=C(Nc1c(Cl)cccc1Cl)c1cc(-c2cccc(O)c2)on1 | activity change 27.5%
- CCc1ccc(CNC(=O)c2ccc(-c3nc(CS(=O)(=O)c4ccccc4)c(C)o3)cc2)cc1 | activity change -35.88%
- COc1ccc2c(C)c(CCC(=O)NCCc3ccccc3OC)c(=O)oc2c1 | activity change -20.47%
- CCCOc1ccc(NC(=O)CC2C(=O)N(c3ccc(C)cc3)C(=O)N2CCc2ccncc2)cc1 (centres undefined) | activity change -21.83%
- COc1ccc(CNC(=O)CCc2c(C)nn(-c3ccc(N4CCCC4)nn3)c2C)cc1 | activity change -23.46%
- CCOc1ccc(S(=O)(=O)Nc2cc3c(C(=O)OCc4ccccc4)c(C)oc3c3ccccc23)cc1 | activity change -64.99%
- COc1ccc(OC)c(-c2cc(C(=O)Nc3c(C)nn(Cc4ccc(C)cc4)c3C)no2)c1 | activity change -14.68%
- Oc1ccccc1-c1nc(/C=C/c2ccccc2)nn1-c1ccccc1 | activity change -7.155%
- COc1cc(OC)c2c(C)c(CC(=O)N3CCCCC3)c(=O)oc2c1 | activity change -5.188%
- Cc1ccc(OCCCC(=O)Nc2sc3c(c2C(N)=O)CCC(C)C3)cc1 (centres undefined) | activity change -14.7%
- CN(C)c1ccc(/C=C/c2nc(-c3ccccc3O)n(-c3ccccc3)n2)cc1 | activity change -25.25%
- CCc1ccccc1NC(=O)c1cc(-c2ccc3c(c2)OCO3)on1 | activity change 35.76%
- COC(=O)CN1C(=O)CSc2ccc(S(=O)(=O)Nc3cc(C)ccc3C)cc21 | activity change -27.32%
- Cc1ccc(O)c(NC(=O)c2noc3c2CCCC3)c1 | activity change 53.58%

The first 3 entries again:

With Cc1oc2ccc(O)c(CN3CCOCC3)c2c1C(=O)Nc1cccc(Cl)c1C the assay gave activity change -10.88%.
With CC(=O)c1ccc(S(=O)(=O)Nc2cccc(-c3ccc(N4CCCC4)nn3)c2)cc1 the assay gave activity change -12.83%.
With O=C(Nc1ccccc1C(F)(F)F)c1noc2c1CCCC2 the assay gave activity change 66.92%.